Measurements taken from patent US12396997B2, “Methods of treatment with an iboga alkaloid” (priority 2022, dated 2025).

Test system: special operations veterans with history of TBI
Assay: Structural T1w MRI (FreeSurfer) regional volume and cortical thickness
Format: in vivo, human
Method: Structural imaging of the brain was also conducted on some of the subjects of Example 1. Gray matter constitutes about 40% of the brain and white matter constitutes about 60% of the brain. Gray matter contains most of the brain's neuronal cell nodes, it is fully developed once a person reaches their 20's and interprets sensor information from various parts of the body. White matter is made up of bundles which connect various gray matter areas, it develops throughout the 20's and peaks in middle age. Typical metrics analyzed in anatomical (T1-weighted. “T1w”) imaging include volume and/or shape of nuclei (e.g. caudate), volume and/or shape of ventricles of the brain, and cortical thickness (mm). These metrics can be used to study normal and abnormal neuroanatomy and are primarily used to quantify gray matter. A tool called FreeSurfer was applied to images for a T1w structural analysis (volume, cortical thickness) to adjust for bias, remove non-brain matter, segments by tissue, parcels the brain into standardized regions, and provides measurements of those regions. FreeSurfer measurements of whole brain volume, volume by tissue (gray, white, CSF), estimated intracranial volume (ICV), subcortical gray matter volume, cortical volume by region were done. […] In particular, analysis was done to determine if there was any loss in gray matter volume or cortical thickness, whether there was a loss in white matter volume or an increase in presence of white matter […].
The fMRI images were also inspected to determine the difference in volume in regional areas of the brain from baseline to one month after treatment. FIG. 8A is a bar graph showing the effect size of a change in volume in 47 brain regions indicated along the x-axis. […] The fMRI images were also inspected for whole brain thickness at baseline and one month after treatment. […] FIG. 8B is a bar graph showing the effect size of a cortical thickness change for the brain regions indicated along the x-axis, from baseline to one month after treatment. […]

[1] = baseline to one month after treatment

SMILES: CCC1CC2CC3c4[nH]c5ccc(OC)cc5c4CCN(C2)C13 (stereo not drawn) [ibogaine]
- Regional volume change: cerebral white mater (left) and left ventral DC [1]: Increases in volume
- Regional volume change: posterior corpus callosum and left choroid plexus [1]: Decreases in volume
- Regional cortical thickness change: left entorhinal cortex, left-lateral-orbitofrontal pole, parahippocampal gyrus, left insular cortex, right-pars triangularis (one-month after treatment): Increases in cortical thickness
